The supplement of paper PMC12823440, “Inhibitors supercharge kinase turnover through native proteolytic circuits” (Nature, 2025)
Where a name gives a salt, the structure may show the parent alone. The list shows a part of the results. Hit calls seldom repeat between salt and free forms of one compound.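 Kinases were expressed as nanoluciferase fusions in K562 cells and luminescence was read every 4 h between 2 and 18 h as percent of control, DMSO set to 100% and a positive control to 0%. A time point counts as decreased when the signal drops significantly (2 sigma). The hit call is the authors' own, does not follow from the count of time points alone, and its rule is not shown.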

Amino acid sequences for entries named in this document (tags omitted).
UniProt Q16620, whole entry, looked up: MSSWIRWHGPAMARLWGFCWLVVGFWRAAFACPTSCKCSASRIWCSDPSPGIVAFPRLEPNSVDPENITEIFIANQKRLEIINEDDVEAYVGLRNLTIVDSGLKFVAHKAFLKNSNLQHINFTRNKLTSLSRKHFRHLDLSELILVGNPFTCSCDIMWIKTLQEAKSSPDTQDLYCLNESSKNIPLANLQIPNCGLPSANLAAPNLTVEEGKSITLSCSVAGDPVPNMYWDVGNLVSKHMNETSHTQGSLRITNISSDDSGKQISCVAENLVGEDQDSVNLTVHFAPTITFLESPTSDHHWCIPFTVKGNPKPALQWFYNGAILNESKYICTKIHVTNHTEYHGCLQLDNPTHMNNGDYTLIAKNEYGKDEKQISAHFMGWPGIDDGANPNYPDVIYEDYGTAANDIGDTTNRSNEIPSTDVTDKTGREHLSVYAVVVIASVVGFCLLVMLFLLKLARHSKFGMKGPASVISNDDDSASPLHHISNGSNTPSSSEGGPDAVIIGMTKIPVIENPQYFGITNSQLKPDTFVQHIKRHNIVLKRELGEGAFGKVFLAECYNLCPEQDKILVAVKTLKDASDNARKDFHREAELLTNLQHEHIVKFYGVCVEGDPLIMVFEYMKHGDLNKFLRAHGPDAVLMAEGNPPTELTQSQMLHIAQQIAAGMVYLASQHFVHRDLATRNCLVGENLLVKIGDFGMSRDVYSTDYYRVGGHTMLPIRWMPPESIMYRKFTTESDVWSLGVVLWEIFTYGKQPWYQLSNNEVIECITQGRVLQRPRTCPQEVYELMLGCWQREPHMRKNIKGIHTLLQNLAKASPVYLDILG
UniProt Q16288, whole entry, looked up: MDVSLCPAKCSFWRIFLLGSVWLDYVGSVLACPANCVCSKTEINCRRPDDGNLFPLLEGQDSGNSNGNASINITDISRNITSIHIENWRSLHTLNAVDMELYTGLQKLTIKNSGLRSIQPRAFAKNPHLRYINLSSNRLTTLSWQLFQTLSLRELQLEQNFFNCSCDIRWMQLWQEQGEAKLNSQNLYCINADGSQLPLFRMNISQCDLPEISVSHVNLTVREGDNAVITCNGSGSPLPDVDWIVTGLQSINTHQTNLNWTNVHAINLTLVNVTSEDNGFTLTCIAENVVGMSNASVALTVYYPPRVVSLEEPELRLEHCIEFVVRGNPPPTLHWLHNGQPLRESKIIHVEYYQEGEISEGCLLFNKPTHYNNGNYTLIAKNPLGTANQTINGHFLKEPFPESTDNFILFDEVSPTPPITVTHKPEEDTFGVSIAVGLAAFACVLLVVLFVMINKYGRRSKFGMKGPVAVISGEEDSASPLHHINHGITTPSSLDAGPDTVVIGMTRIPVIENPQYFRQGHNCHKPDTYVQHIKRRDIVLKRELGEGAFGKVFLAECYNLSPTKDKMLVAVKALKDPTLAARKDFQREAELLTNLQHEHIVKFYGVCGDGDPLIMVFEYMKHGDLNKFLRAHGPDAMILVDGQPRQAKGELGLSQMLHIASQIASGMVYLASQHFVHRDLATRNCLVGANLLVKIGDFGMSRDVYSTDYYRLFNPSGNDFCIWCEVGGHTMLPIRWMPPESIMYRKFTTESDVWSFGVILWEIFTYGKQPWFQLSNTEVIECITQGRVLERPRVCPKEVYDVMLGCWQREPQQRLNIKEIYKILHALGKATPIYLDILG

Target: NTRK2 (UniProt Q16620)
Test: kinase-Nluc reporter destabilization hit call (1 = scored as downregulated) (binary); higher = compound decreases kinase abundance
Conditions: 10 µM; K562; 2-18 h

kinase-Nluc reporter destabilization hit call, inactive:
COc1cc2c(-c3cnn4cc(N5CCC(N6CCN(C)CC6)CC5)cnc34)ccnc2cc1F [ALK2-IN-4 (succinate)] 0, CCN(CC)Cc1ccc(OC)c(-c2cc3c(-c4ccc(C(=O)O)c(C(C)C)c4)ccnc3[nH]2)c1 0, O=C(c1nn(-c2ccc(CN3CCOCC3)cc2)c2c1CS(=O)(=O)c1c(F)cccc1-2)N1CCOCC1 0, CC(C)(C)n1nc(-c2cccc3ccccc23)c2c(N)ncnc21 [1-Naphthyl PP1 (hydrochloride)] 0, CCN(CC)CC(=O)Nc1c(C)cccc1C [Lidocaine (hydrochloride)] 0, Cn1ncc(Cl)c1-c1cc(C(=O)N[C@H](CN)Cc2cccc(F)c2)sc1Cl [Afuresertib (hydrochloride)] 0, COc1cc2c(cc1OC)-c1c(C)c3ccc(OC)c(OC)c3c[n+]1CC2 [Dehydrocorydaline] 0, C[C@H](CCC(=O)NCCS(=O)(=O)O)[C@H]1CC[C@H]2[C@@H]3[C@@H](O)C[C@@H]4C[C@H](O)CC[C@]4(C)[C@H]3CC[C@]12C [Tauroursodeoxycholate (dihydrate)] 0, OCCn1cc(-c2cnc3nnn(Cc4ccc5ncccc5c4)c3n2)cn1 0, C[S+]([O-])c1ccc(-c2nc(-c3ccc(F)cc3)c(-c3ccncc3)[nH]2)cc1 (stereo not drawn) 0, CC(C)(C)n1nc(-c2cccc3ccccc23)c2c(N)ncnc21 [1-Naphthyl PP1] 0

Target: NTRK3 (UniProt Q16288)
Test: as above
Conditions: 2.5 µM; K562; 2-18 h

kinase-Nluc reporter destabilization hit call, inactive:
CN1CCCN(C(=O)c2cccc(-c3ccc(/C=C4/C(=O)Nc5ccc(Cl)cc54)o3)c2)CC1 [CX-6258 (hydrochloride)] 0, Clc1ccc(C2(c3ccc(-c4cn[nH]c4)cc3)CCNCC2)cc1 [AT7867 (dihydrochloride)] 0, CC(C)Oc1ccc(-c2nn([C@@H](C)c3oc4ccc(F)cc4c(=O)c3-c3cccc(F)c3)c3ncnc(N)c23)cc1F [Umbralisib] 0, C=CC(=O)Nc1cc(Nc2nccc(-c3cn(C)c4ccccc34)n2)c(OC)cc1N(C)CCN(C)C [Osimertinib] 0, COc1cc2c(Oc3ccc4[nH]c(C)cc4c3F)ncnc2cc1OCCCN1CCCC1 [Cediranib (maleate)] 0, CC(C)Oc1ccc(-c2nn([C@@H](C)c3oc4ccc(F)cc4c(=O)c3-c3cccc(F)c3)c3ncnc(N)c23)cc1F [Umbralisib (hydrochloride)] 0, COc1ccc(S(=O)(=O)N(CCO)c2ccccc2CN(C)C/C=C/c2ccc(Cl)cc2)cc1 [KN-93 (hydrochloride)] 0, C=CC(=O)N1CCN(c2ncnc3c(F)c(-c4c(O)cccc4F)c(Cl)cc23)CC1 0, COc1ccc(S(=O)(=O)Nc2ccccc2CN(C)C/C=C/c2ccc(Cl)cc2)cc1 [KN-92 (hydrochloride)] 0, CCN(CC)Cc1ccc(OC)c(-c2cc3c(-c4ccc(C(=O)O)c(C(C)C)c4)ccnc3[nH]2)c1 0, CN(C)C/C=C/C(=O)Nc1cc2c(Nc3ccc(F)c(Cl)c3)ncnc2cc1O[C@H]1CCOC1 [Afatinib (dimaleate)] 0, Oc1cccc(-c2nc(N3CCOCC3)c3oc4ncccc4c3n2)c1 [PI-103 (Hydrochloride)] 0, c1cc(-c2cnn3cc(-c4ccc(OCCN5CCCCC5)cc4)cnc23)ccn1 [Dorsomorphin] 0, COc1ccc(S(=O)(=O)N(CCO)c2ccccc2CN(C)C/C=C/c2ccc(Cl)cc2)cc1 [KN-93 (phosphate)] 0, Nc1ncnc2c1c(-c1ccc(Oc3ccccc3)cc1)nn2[C@@H]1CCCNC1 [IBT6A (hydrochloride)] 0

Same assay, conditions: 10 µM; K562; 2-18 h

kinase-Nluc reporter destabilization hit call, inactive:
COc1cc2nccc(Oc3ccc(NC(=O)C4(C(=O)Nc5ccc(F)cc5)CC4)cc3)c2cc1OC [Cabozantinib (S-malate)] 0, Cn1cc(-c2cnc3ccc4ccc(CS(=O)(=O)NCc5ccccn5)cc4c(=O)c3c2)cn1 [MK-8033 (hydrochloride)] 0, CNC(=O)c1ccc(Nc2ncc(C(F)(F)F)c(NCc3nccnc3N(C)S(C)(=O)=O)n2)cc1 [Defactinib] 0, N#CCNC(=O)c1ccc(-c2ccnc(Nc3ccc(N4CCOCC4)cc3)n2)cc1 [Momelotinib] 0, CC(=O)c1c(C)c2cnc(Nc3ccc(N4CCNCC4)cn3)nc2n(C2CCCC2)c1=O [Palbociclib (isethionate)] 0, Nc1cncc(-c2cn3ccnc3c(Nc3ccc(N4CCN(C5COC5)CC4)cc3)n2)n1 [Lanraplenib (succinate)] 0, C#Cc1cccc(Nc2ncnc3cc4c(cc23)OCCOCCOCCO4)c1 [Icotinib] 0, O=C(O)c1ccc2c(c1)nc(Nc1cccc(Cl)c1)c1ccncc12 [Silmitasertib (sodium salt)] 0, CC(C)Nc1cc(-c2c[nH]c(C(=O)N[C@H](CO)c3cccc(Cl)c3)c2)c(Cl)cn1 [Ulixertinib (hydrochloride)] 0, C=CC(=O)N1CCN(c2ncnc3c(F)c(-c4c(O)cccc4F)c(Cl)cc23)CC1 0, CN(C)C(=O)c1cc2cnc(Nc3ccc(N4CCNCC4)cn3)nc2n1C1CCCC1 [Ribociclib] 0, COc1cc2c(-c3cnn4cc(N5CCC(N6CCN(C)CC6)CC5)cnc34)ccnc2cc1F [ALK2-IN-4 (succinate)] 0, CCN(CC)Cc1ccc(OC)c(-c2cc3c(-c4ccc(C(=O)O)c(C(C)C)c4)ccnc3[nH]2)c1 0, O=C(c1nn(-c2ccc(CN3CCOCC3)cc2)c2c1CS(=O)(=O)c1c(F)cccc1-2)N1CCOCC1 0, CC(C)(C)n1nc(-c2cccc3ccccc23)c2c(N)ncnc21 [1-Naphthyl PP1 (hydrochloride)] 0, CCN(CC)CC(=O)Nc1c(C)cccc1C [Lidocaine (hydrochloride)] 0, Cn1ncc(Cl)c1-c1cc(C(=O)N[C@H](CN)Cc2cccc(F)c2)sc1Cl [Afuresertib (hydrochloride)] 0, COc1cc2c(cc1OC)-c1c(C)c3ccc(OC)c(OC)c3c[n+]1CC2 [Dehydrocorydaline] 0, C[C@H](CCC(=O)NCCS(=O)(=O)O)[C@H]1CC[C@H]2[C@@H]3[C@@H](O)C[C@@H]4C[C@H](O)CC[C@]4(C)[C@H]3CC[C@]12C [Tauroursodeoxycholate (dihydrate)] 0, OCCn1cc(-c2cnc3nnn(Cc4ccc5ncccc5c4)c3n2)cn1 0, C[S+]([O-])c1ccc(-c2nc(-c3ccc(F)cc3)c(-c3ccncc3)[nH]2)cc1 (stereo not drawn) 0, CC(C)(C)n1nc(-c2cccc3ccccc23)c2c(N)ncnc21 [1-Naphthyl PP1] 0
